The exact form of at least one protein or probe is not confirmed. A negative result means that nothing was seen under these conditions. Protein sequences can lack the tags named with them.
Target: T1, AdpAlin (Streptomyces lincolnensis NRRL 2936) (UniProt A0A1B1M9Y0)
T1 sequence (looked up, limits assumed): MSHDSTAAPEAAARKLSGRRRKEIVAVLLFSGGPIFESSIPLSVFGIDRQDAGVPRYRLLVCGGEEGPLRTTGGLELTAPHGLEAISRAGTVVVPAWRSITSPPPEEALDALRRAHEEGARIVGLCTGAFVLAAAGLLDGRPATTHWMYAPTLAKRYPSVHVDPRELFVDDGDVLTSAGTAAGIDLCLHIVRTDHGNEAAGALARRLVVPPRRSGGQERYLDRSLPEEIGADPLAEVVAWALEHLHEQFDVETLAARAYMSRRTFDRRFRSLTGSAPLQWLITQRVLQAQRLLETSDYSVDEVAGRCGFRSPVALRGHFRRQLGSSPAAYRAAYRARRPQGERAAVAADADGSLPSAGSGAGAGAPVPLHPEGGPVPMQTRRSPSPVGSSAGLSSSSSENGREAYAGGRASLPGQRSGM
Test: EMSA
Settings: EMSA: 20 mM Tris-HCl pH 7.5, 5% glycerol, 0.1% BSA, 2.5 nM 5'-biotin probe, AdpAlin 0-6.4 uM (12.8 uM for probe-neg), 200-fold unlabeled competitor, recombinant protein, label: 5'-biotin, probe letters rebuilt from the primers and the genome

AGCCAGTGACGATAAGGATTTGTTCTAGGTAAACGCCCGGGCTCTCAAACAAGGTTAAAAACTTCCACAGTACTGCCCCAAATGCACACATCCAGGCATAAGTGAGAAACGTAGCGGAAGGCAGGGAACGTCATGCTCTAAAGATTCGTCGCTCCGAAAGGAGGGCGTCTTGCGTGTTAATCGGCCGTTGACATATGCTCATTTCACCTTGCGGAATGAAATGAGCCCAGCTGTTGTTGCCGCTTTGGATGGTCCGGATCCGGCCGGTTTCAAGATCTCCAGGATCCCCTGGATAATTAATTGACCGGCCTCCTACACTCTGATCCGTACTTGATACATTGCTTATCGTCACTGGCT (double strand) [mlmbUp-B]
binding result (up to 3.2 uM protein): no binding

AGCCAGTGACGATAAGGATTTGTTCTAGGTAAACGCCCGGGCTCTCAAACAAGGTTAAAAACTTCCACAGTACTGCCCCAAATGCACACATCCAGGCATAAGTGAGAAACGTAGCGGAAGGCAGGGAACGTCATGCTCTAAAGATTCGTCGCTCCGAAAGGAGGGCGTCTTGCGTGTTAATCGGCCGTTGACATATGCTCATTTCACCTTGCGGAATGAAATGAGCCCAGCTGTTTGGCCGTTGGGTTGCCGCTTTGGATGGTCCGGATCCGGCCGGTTTCAAGATCTCCAGGATCCCCTGGATAATTAATTGACCGGCCTCCTACACTCTGATCCGTACTTGATACATTGCTTATCGTCACTGGCT (double strand) [lmbUp-B]
binding result: binds

AGCCAGTGACGATAAGGGTTCCCGTGGTGCTCCTCTGGTACGGCACCTCGCTCGCCGGCGCCGCCGGCACCGCGCTCGGACTGGCCGCCGTCACCGCCGTCTGCCGTATCCTCCTGCGCCAGTCGGAGCGCGGTGCGGCACGGCTACTGGCCGAAGAACGGGCCCCCCATCGCGGCCACCGCCACCGGGCCGGAACGGGGACACACAGGGGTGGGCGGCACGGTGGGGGAAATACACCGGTCGGCTGACCGGTTTCCGCGCACGCGCCCGACTCTTTTCAGCCAACTTCCGACCACCTTATCGTCACTGGCT (double strand) [adpAp-B]
binding result: binds
